Assay results reported in US6355669B1, “Retinoic acid agonists as preventive and therapeutic agents for nephritis” (Eisai Co., Ltd., priority 1997, dated 2002).
Some entries share one result that the patent states for a list of compounds. For at least one compound, name, drawing or mass did not settle the structure.

System: accelerated Masugi nephritis
Assay: Rat model with accelerated Masugi nephritis (proteins excreted in urine for 24 hours)
Type: in vivo, Sprague-Dawley strain rats
Settings: oral once every day, compared with the control group
Procedure: Sprague-Dawley strain rats were immunized by subcutaneously administering rabbit γ-globulin in a dose of 4 mg/rat along with Freund's complete adjuvant into the bottoms of their both hind legs. On the 5th day after the rats were immunized, 1 ml of anti-rat glomerular basement membrane rabbit serum diluted 6- or 8-fold was administered via tail veins into the animals. On the 8th day, the rats were forced to be orally administered 8 ml sterilized water and then placed in a metabolism cage, and their urine was collected for 24 hours during which the animals were allowed neither food nor water. As the indicator of the model with accelerated Masugi nephritis, the amount of proteins excreted in urine for 24 hours was used.
The medium was administered into the control group.

| SMILES | Degree of Inhibition of Albuminuria (%) (dose 0.3 mg/kg, 0.3 mg/kg) | Degree of Inhibition of Albuminuria (%) (dose 1.0 mg/kg, 1 mg/kg) |
| --- | --- | --- |
| Cc1ccc(C)c2c(F)c(-c3ccc(-c4ccc(C(=O)O)cc4)[nH]3)oc12 [Compound C, 4-{2-[5-(3-fluoro-4,7-dimethylbenzofuran-2-yl)pyrrolyl]}benzoic acid] | 60 to 90% |  |
| CC1CCCN(C)c2ccc(-c3ccc(-c4ccc(C(=O)O)cc4)[nH]3)cc21 (centres unmarked) [Compound F, 4-{2-{5-[7-(1,5-dimethyl-2,3,4,5-tetrahydro-1H-benzazepinyl)]pyrrolyl}}benzoic acid] |  | 70 to 80% |
